According to the supplement of paper PMC10849652:
The other results are listed elsewhere or left out.

The chains behind the UniProt entries cited, without tags or fusion partners. Where a name states a change or a piece, a line headed by the entry shows the natural chain unless it says otherwise.
UniProt P10746: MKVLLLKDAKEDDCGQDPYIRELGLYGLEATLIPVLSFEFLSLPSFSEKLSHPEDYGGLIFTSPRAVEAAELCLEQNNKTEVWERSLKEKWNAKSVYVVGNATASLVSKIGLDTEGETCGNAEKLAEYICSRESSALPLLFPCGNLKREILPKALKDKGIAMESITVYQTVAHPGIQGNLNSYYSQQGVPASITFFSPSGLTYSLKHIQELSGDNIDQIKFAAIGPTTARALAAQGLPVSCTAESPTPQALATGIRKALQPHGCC
UniProt Q53GS9: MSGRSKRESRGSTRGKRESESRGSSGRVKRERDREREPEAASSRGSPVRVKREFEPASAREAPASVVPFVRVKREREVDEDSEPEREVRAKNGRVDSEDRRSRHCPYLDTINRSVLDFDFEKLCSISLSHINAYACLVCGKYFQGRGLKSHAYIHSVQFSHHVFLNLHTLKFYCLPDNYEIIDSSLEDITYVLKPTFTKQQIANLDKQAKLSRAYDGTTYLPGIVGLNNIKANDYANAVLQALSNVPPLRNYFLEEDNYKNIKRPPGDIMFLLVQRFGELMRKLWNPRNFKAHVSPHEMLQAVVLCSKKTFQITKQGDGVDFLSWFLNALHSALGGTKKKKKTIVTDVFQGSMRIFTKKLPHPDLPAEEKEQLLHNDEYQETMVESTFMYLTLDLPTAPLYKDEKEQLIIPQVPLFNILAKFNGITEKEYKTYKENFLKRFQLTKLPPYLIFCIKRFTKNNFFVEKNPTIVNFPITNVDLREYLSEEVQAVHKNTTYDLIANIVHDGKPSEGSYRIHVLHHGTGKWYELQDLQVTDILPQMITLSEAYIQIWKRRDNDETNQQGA
UniProt Q15853: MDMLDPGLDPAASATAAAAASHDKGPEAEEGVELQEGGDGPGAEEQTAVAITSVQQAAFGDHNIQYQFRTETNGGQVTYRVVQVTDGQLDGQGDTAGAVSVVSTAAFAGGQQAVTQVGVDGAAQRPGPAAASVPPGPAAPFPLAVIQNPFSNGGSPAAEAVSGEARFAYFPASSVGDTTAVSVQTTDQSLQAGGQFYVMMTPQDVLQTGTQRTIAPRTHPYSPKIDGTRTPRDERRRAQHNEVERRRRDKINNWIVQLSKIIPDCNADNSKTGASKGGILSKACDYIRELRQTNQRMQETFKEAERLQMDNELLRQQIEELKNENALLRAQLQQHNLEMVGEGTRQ
UniProt Q70J99: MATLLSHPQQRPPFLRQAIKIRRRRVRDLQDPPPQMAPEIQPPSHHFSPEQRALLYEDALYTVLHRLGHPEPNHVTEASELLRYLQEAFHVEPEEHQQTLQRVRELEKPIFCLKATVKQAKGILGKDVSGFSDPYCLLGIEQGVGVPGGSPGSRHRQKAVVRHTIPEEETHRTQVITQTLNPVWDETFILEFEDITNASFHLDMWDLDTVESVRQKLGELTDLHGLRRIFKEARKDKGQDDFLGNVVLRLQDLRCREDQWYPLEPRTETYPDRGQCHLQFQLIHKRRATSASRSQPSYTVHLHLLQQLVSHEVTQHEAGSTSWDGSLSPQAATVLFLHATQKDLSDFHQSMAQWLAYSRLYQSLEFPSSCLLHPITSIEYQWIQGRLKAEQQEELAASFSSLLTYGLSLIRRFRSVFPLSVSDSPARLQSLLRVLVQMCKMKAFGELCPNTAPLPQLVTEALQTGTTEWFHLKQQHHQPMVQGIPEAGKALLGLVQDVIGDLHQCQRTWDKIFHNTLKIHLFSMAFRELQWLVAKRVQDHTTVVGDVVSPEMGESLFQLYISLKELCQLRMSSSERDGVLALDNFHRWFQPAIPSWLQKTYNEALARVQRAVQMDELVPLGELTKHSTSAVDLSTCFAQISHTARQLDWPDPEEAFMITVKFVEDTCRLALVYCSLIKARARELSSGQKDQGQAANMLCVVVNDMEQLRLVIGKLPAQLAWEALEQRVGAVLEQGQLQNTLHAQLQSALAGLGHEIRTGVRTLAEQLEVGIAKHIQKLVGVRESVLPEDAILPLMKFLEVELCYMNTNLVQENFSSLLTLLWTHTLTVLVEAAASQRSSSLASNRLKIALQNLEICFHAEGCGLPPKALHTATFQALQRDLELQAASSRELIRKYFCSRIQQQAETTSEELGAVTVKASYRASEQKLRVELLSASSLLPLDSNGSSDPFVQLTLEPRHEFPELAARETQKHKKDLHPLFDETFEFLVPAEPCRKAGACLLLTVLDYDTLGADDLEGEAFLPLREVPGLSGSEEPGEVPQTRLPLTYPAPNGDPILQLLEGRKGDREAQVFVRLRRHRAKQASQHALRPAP
UniProt Q9P0L0: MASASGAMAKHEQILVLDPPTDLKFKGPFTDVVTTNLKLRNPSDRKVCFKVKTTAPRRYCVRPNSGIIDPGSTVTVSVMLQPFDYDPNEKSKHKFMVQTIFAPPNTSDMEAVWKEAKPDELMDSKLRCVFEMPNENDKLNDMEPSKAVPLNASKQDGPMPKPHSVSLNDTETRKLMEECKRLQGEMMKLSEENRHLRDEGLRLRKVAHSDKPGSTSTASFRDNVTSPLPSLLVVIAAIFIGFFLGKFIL

Compound: c1cn2cc(-c3ccc4cn[nH]c4c3)nc(Nc3ccc(N4CCOCC4)cc3)c2n1 [entospletinib]
Assay: log2 fold change, soluble protein after heating vs DMSO (PISA); higher = thermal stabilisation; K562 cells, 10 uM, 30 min; active = over 0.2 and 3.5 SD of the protein, either way, in both replicates (recomputed)
Outline: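 K562 cells at 2×10^6 cells/mL were given 10 μM compound for 30 min. Aliquots then went through 3 min of heating across 48°C-58°C, were pooled, and were extracted in PBS with 0.5% NP-40 at 4°C, and the supernatant after 21,000xg for 90 min was quantified by TMTpro 16plex LC-MS/MS with channel sums equalised. Thermal stability relative to control samples, from duplicates, is given as log2 fold change.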

log2 fold change, inactive:
UROS (UniProt P10746) 0.05, USP39 (UniProt Q53GS9) 0.04, USF2 (UniProt Q15853) 0.032, UNC13D isoform 3 (UniProt Q70J99) 0.15, VAPA isoform 2 (UniProt Q9P0L0) -0.056
